Assay results taken from the supplement of paper PMC4604168 (melanoma cell lines).
The list shows a part of the results. Repeats are few or missing, and single values can be far off.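 Cells were imaged in 1,536-well plates, and nuclei stained with an antibody against cleaved PARP were counted against all DNA-stained nuclei to give the apoptosis fraction. Screening doses were chosen to leave most cells alive, and resting and induced cleaved-PARP levels differ strongly between cell lines.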

Assays:
Test in all cases: cleaved PARP positive nuclei fraction relative to DMSO control; melanoma cells; higher = more apoptosis
Conditions in all cases: library dose: low library concentration; 72 h
CBRC034 = tested on: CBRC034 (line from a melanoma biopsy)
COLO792 = tested on: COLO792
COLO800 = tested on: COLO800
COLO829 = tested on: COLO829
G361 = tested on: G361
IPC-298 = tested on: IPC-298
IST-MEL1 = tested on: IST-MEL1
LB2518-MEL = tested on: LB2518-MEL
LOXIMVI = tested on: LOXIMVI
MZ2-MEL = tested on: MZ2-MEL
MeWo = tested on: MeWo
RPMI7951 = tested on: RPMI7951
RVH-421 = tested on: RVH-421
SkMel28 = tested on: SkMel28
SkMel30 = tested on: SkMel30
SkMel5 = tested on: SkMel5
UACC257 = tested on: UACC257
UACC62 = tested on: UACC62

SMILES	cleaved PARP positive nuclei fraction (CBRC034) [%]	cleaved PARP positive nuclei fraction (COLO792) [%]	cleaved PARP positive nuclei fraction (COLO800) [%]	cleaved PARP positive nuclei fraction (COLO829) [%]	cleaved PARP positive nuclei fraction (G361) [%]	cleaved PARP positive nuclei fraction (IPC-298) [%]	cleaved PARP positive nuclei fraction (IST-MEL1) [%]	cleaved PARP positive nuclei fraction (LB2518-MEL) [%]	cleaved PARP positive nuclei fraction (LOXIMVI) [%]	cleaved PARP positive nuclei fraction (MZ2-MEL) [%]	cleaved PARP positive nuclei fraction (MeWo) [%]	cleaved PARP positive nuclei fraction (RPMI7951) [%]	cleaved PARP positive nuclei fraction (RVH-421) [%]	cleaved PARP positive nuclei fraction (SkMel28) [%]	cleaved PARP positive nuclei fraction (SkMel30) [%]	cleaved PARP positive nuclei fraction (SkMel5) [%]	cleaved PARP positive nuclei fraction (UACC257) [%]	cleaved PARP positive nuclei fraction (UACC62) [%]
O=C(O)c1ccc(-c2c[nH]c3ncc(-c4ccccc4)cc23)cc1C1CCCC1 + CC(C)CCN1c2nc(Nc3cc(F)c(O)c(F)c3)ncc2N(C)C(=O)C1C [BID1870] (first compound 0.16 µM, partner dose 0.2 µM)	72.1	135	112	99.6	103	42	151	81.6	60.6	136	164	19.2	28.4	520	14.1	48.2	131	89.1
CCc1ccc(CCOc2ccc(CC3SC(=O)NC3=O)cc2)nc1 (centres undefined) [pioglitazone] + COc1cc(N2CCC(N3CCN(C)CC3)CC2)ccc1Nc1ncc(Cl)c(Nc2ccccc2S(=O)(=O)C(C)C)n1 [NVP-TAE684] (first compound 2 µM, partner dose 0.08 µM)	84.6	79.5	101	131	131	17.8	71.5	67	77.2	117	136	113	84	220	244	106	127	81
O=c1cc(-c2cccc3c2Sc2ccccc2S3)oc(N2CCOCC2)c1 + CC(C)CCN1c2nc(Nc3cc(F)c(O)c(F)c3)ncc2N(C)C(=O)C1C [BID1870] (first compound 1 µM, partner dose 0.2 µM)	79.2	158	106	73.4	92.5	60.1	152	139	26.8	152	170	170	107	47.3	37.8	61.1	62.7	139
CN(C)S(=O)(=O)c1ccc2c(c1)/C(=C/c1cc3c([nH]1)CCCC3)C(=O)N2 + O=S(=O)(c1ccccc1)N(CC(F)(F)F)c1ccc(C(O)(C(F)(F)F)C(F)(F)F)cc1 [T0901317] (first compound 0.4 µM, partner dose 1.4 µM)	99.7	39	43.9	173	149	216	93	257	42	117	200	66.6	160	16.9	184	16.2	47.1	40.7
COc1ccc2c(c1)CCC1C2CCC2(C)C(NCCCCCCN3C(=O)C=CC3=O)CCC12 (centres undefined) + COc1ccc(COc2ccc(Cc3cnc(N)nc3N)cc2OC)cc1 [GW2580] (first compound 0.4 µM, partner dose 1 µM)	97.5	127	78	121	129	113	147	275	103	155	131	75.2	115	96	26.7	41.6	242	79.1
COc1cc2c(Oc3ccc4[nH]c(C)cc4c3F)ncnc2cc1OCCCN1CCCC1 [cediranib] + COc1ccc2c(c1)CCC1C2CCC2(C)C(NCCCCCCN3C(=O)C=CC3=O)CCC12 [U73122] (first compound 0.4 µM, partner dose 0.4 µM)	97.2	103	120	169	64.9	125	134	84	62.6	115	44.4	111	56.2	103	58	52.7	80.4	127
O=C(O)c1ccc(-c2c[nH]c3ncc(-c4ccccc4)cc23)cc1C1CCCC1 + O=S(=O)(c1ccccc1)N(CC(F)(F)F)c1ccc(C(O)(C(F)(F)F)C(F)(F)F)cc1 [T0901317] (first compound 0.16 µM, partner dose 1.4 µM)	94.3	41.6	202	91.3	148	132	25.8	155	73.2	90.6	82.5	78	54.5	47.7	42.2	54.3	32	254
COc1ccc(-c2ccc3c(N4CCOCC4)nc(N4C[C@@H](C)O[C@@H](C)C4)nc3n2)cc1CO + O=C1NC(=O)/C(=C/c2ccc(-c3ccc(F)cc3O)o2)S1 [AS252424] (first compound 0.02 µM, partner dose 1 µM)	82.3	54.4	37.1	55.7	160	90.5	189	181	165	172	28.7	46.1	79.9	164	17.1	118	266	147
COC(=O)c1sccc1S(=O)(=O)Nc1ccc(Nc2ccccc2)cc1OC + Cc1cc([N+](=O)[O-])ccc1NS(=O)(=O)c1cc(Cl)ccc1Cl [FH535] (first compound 1 µM, partner dose 1 µM)	142	87.6	133	96.3	51.2	173	68.1	69	34.4	40.1	97.9	83.3	90.8	90.1	21.6	135	33.3	499
O=C(O)C(=O)Nc1sc2c(c1C(=O)O)CCNC2 + CC(C)CCN1c2nc(Nc3cc(F)c(O)c(F)c3)ncc2N(C)C(=O)C1C [BID1870] (first compound 1.66667 µM, partner dose 0.2 µM)	64.5	115	158	112	108	84	80.5	77.1	24.5	35.6	28.3	124	125	78.5	64	31.8	100	45.8
Oc1cc(-c2nc(-c3ccccc3)[nH]c2-c2ccncc2)ccc1Cl + O=C(O)C(=O)Nc1sc2c(c1C(=O)O)CCNC2 [TCS401] (first compound 0.2 µM, partner dose 1.66667 µM)	76.2	99.8	167	81.9	152	87.7	29.5	46.7	44.9	132	48.3	73.8	130	75.6	26.9	57.6	50.7	105
COc1cc2c(Oc3ccc4[nH]c(C)cc4c3F)ncnc2cc1OCCCN1CCCC1 [cediranib] + CCCCCCCCCCCC1=C(O)C(=O)C=C(O)C1=O [Embelin] (first compound 0.4 µM, partner dose 1.2 µM)	95.2	80.6	103	70.6	110	53.1	126	85.9	52.2	176	48.9	37	37.6	152	464	49.6	92.9	99.7
NCC(=O)Nc1ccc(-n2nc(C(F)(F)F)cc2-c2ccc3c(ccc4ccccc43)c2)cc1 + COc1ccc(-c2ccc3c(N4CCOCC4)nc(N4C[C@@H](C)O[C@@H](C)C4)nc3n2)cc1CO [KU0063794] (first compound 1 µM, partner dose 0.02 µM)	123	145	59.5	116	91	105	101	39.1	1970	104	119	271	116	186	41.7	186	138	358
O=C(Nc1ccccc1)c1cc([N+](=O)[O-])ccc1Cl + O=C(O)C(=O)Nc1sc2c(c1C(=O)O)CCNC2 [TCS401] (first compound 2 µM, partner dose 1.66667 µM)	337	136	58.4	162	30.4	82.8	172	98.5	84.4	184	54.6	186	123	192	18.9	101	141	86.8
COc1cc2c(Oc3ccc4[nH]c(C)cc4c3F)ncnc2cc1OCCCN1CCCC1 [cediranib] + COc1cc2ncnc(Nc3ccc(Oc4ccccc4)cc3)c2cc1OC [SrcI1] (first compound 0.4 µM, partner dose 2 µM)	156	206	154	114	101	71.8	260	86.9	92.6	168	143	87.6	20.2	98.5	160	65.4	64.9	39.5
COc1ccc(COc2ccc(Cc3cnc(N)nc3N)cc2OC)cc1 + O=c1cc(-c2cccc3c2Sc2ccccc2S3)oc(N2CCOCC2)c1 [KU55933] (first compound 1 µM, partner dose 1 µM)	156	97.9	46.5	84.2	73.4	54.8	41.3	73.5	27.8	53.2	211	160	75.9	172	17.6	27.7	69.8	37.9
NCC(=O)Nc1ccc(-n2nc(C(F)(F)F)cc2-c2ccc3c(ccc4ccccc43)c2)cc1 + Cc1cc([N+](=O)[O-])ccc1NS(=O)(=O)c1cc(Cl)ccc1Cl [FH535] (first compound 1 µM, partner dose 1 µM)	447	101	86.5	48.8	69.1	51.8	49.6	169	172	116	181	64.4	29.2	114	49.3	72.6	180	139
Oc1cc(-c2nc(-c3ccccc3)[nH]c2-c2ccncc2)ccc1Cl + Oc1nc(-c2ccc(C(F)(F)F)cc2)nc2c1CSCC2 [XAV939] (first compound 0.2 µM, partner dose 2 µM)	284	72.6	159	106	121	61.9	49.9	92.4	48.5	53.3	53.5	153	104	157	179	37.5	119	92.7

Quoted at random: 2 records from the list, in no set order.
SMILES	cleaved PARP positive nuclei fraction (CBRC034) [%]	cleaved PARP positive nuclei fraction (COLO792) [%]	cleaved PARP positive nuclei fraction (COLO800) [%]	cleaved PARP positive nuclei fraction (COLO829) [%]	cleaved PARP positive nuclei fraction (G361) [%]	cleaved PARP positive nuclei fraction (IPC-298) [%]	cleaved PARP positive nuclei fraction (IST-MEL1) [%]	cleaved PARP positive nuclei fraction (LB2518-MEL) [%]	cleaved PARP positive nuclei fraction (LOXIMVI) [%]	cleaved PARP positive nuclei fraction (MZ2-MEL) [%]	cleaved PARP positive nuclei fraction (MeWo) [%]	cleaved PARP positive nuclei fraction (RPMI7951) [%]	cleaved PARP positive nuclei fraction (RVH-421) [%]	cleaved PARP positive nuclei fraction (SkMel28) [%]	cleaved PARP positive nuclei fraction (SkMel30) [%]	cleaved PARP positive nuclei fraction (SkMel5) [%]	cleaved PARP positive nuclei fraction (UACC257) [%]	cleaved PARP positive nuclei fraction (UACC62) [%]
O=C(Nc1ccccc1)c1cc([N+](=O)[O-])ccc1Cl + O=C(O)C(=O)Nc1sc2c(c1C(=O)O)CCNC2 [TCS401] (first compound 2 µM, partner dose 1.66667 µM)	337	136	58.4	162	30.4	82.8	172	98.5	84.4	184	54.6	186	123	192	18.9	101	141	86.8
Oc1cc(-c2nc(-c3ccccc3)[nH]c2-c2ccncc2)ccc1Cl + O=C(O)C(=O)Nc1sc2c(c1C(=O)O)CCNC2 [TCS401] (first compound 0.2 µM, partner dose 1.66667 µM)	76.2	99.8	167	81.9	152	87.7	29.5	46.7	44.9	132	48.3	73.8	130	75.6	26.9	57.6	50.7	105
